Test results: article PMC7064442
Results are given in words; binding and its absence hold for the method and conditions named. In cells and extracts the contact can be indirect. Some binding calls cover weakened binding; strength is not graded here.

The chains behind the UniProt entries cited, without tags or fusion partners.
UniProt Q80U70: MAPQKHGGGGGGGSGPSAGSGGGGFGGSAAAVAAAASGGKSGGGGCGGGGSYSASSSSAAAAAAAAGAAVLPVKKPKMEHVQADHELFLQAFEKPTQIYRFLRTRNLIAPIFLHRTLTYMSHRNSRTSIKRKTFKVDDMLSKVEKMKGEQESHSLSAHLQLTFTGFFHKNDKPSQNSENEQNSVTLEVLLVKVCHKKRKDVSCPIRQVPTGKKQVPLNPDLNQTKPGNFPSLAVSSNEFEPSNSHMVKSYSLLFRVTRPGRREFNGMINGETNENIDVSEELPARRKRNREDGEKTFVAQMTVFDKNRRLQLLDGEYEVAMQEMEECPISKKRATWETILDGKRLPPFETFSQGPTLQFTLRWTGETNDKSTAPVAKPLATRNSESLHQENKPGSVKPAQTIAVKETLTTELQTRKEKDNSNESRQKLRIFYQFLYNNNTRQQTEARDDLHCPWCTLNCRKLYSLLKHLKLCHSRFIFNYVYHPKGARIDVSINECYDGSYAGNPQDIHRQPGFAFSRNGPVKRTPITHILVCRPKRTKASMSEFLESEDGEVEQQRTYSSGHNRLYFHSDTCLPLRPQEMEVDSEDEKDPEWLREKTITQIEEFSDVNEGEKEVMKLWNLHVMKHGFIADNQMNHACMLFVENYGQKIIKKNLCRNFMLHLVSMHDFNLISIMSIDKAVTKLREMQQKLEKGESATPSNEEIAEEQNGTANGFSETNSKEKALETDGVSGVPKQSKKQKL
UniProt O09106: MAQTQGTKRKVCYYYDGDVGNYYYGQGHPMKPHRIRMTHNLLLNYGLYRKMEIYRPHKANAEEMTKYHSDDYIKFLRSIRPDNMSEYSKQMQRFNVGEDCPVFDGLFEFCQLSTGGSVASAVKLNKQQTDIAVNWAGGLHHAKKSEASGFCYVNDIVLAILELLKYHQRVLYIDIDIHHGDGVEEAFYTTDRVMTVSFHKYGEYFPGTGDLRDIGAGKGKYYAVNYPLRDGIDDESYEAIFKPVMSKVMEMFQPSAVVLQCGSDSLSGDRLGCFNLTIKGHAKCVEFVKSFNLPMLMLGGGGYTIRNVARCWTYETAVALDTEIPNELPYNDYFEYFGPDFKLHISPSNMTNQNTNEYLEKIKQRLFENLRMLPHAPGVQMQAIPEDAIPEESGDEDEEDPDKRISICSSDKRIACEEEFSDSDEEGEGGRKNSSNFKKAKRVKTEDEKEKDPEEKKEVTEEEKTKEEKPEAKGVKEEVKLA

Biological target: SUZ12 (PRC2 member) (mouse (endogenous in MEFs)) (UniProt Q80U70)
Test: co-IP; data not shown: IP with anti-SUZ12 from MEFs, HDAC1 detected; enriched in DNMT3L-expressing MEFs

Substance: HDAC1 (from UniProt O09106 1-482)
- binding: binds
